Measurements reported in PubChem BioAssay AID1508597 (Cure First, 2020)
Test: 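Genes whose silencing sensitises or protects ovarian cancer cells against rucaparib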 (primary screen). Cells: human ovarian carcinoma lines grown from tumours: OCI-P5x (papillary serous) and OCI-C5x (clear cell). Knock-down reagent: siRNA pool against human genes, 1.25 pmol siRNA per well. Duration: 72 h or 96 h, depending on the cell culture. Challenge: rucaparib 20 µM (about IC30) or vehicle, present until read-out. Rucaparib or vehicle: Rucaparib. Cell line: OCI-P5x (serous). Detection: 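ATP luminescence measured at 72 or 96 h according to the culture, then normalised and expressed as percent viability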. Direction: viability, normalised: higher = more viable cells remaining. Call rule: 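Active when normalised viability falls below 80 percent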. Calls: active = viability under 80%; inactive = viability 80% or more.
Shown is a random part of the about 2,100 reagents, in one setting of the screen. 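Calls flag viability under 80% in either arm, not effects specific to rucaparib; the reference for percent is not stated.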 Not given: the 100% reference.

The opening 3 entries, to show the layout:
Gene,technical replicate,"viability, normalised (%)",outcome
KAT6B,1,49.3,active
KAT6B,2,57.6,active
KAT6B,3,59.7,active

Main list, from the start:
Gene,technical replicate,"viability, normalised (%)",outcome
KAT6B,1,49.3,active
KAT6B,2,57.6,active
KAT6B,3,59.7,active
DLG3,1,84.4,inactive
DLG3,2,78.5,active
DLG3,3,75.1,active
PLK1,1,28,active
PLK1,2,33,active
PLK1,3,34.5,active
TEK,1,103,inactive
TEK,2,115,inactive
TEK,3,91.4,inactive
CHD3,1,71.8,active
CHD3,2,74.9,active
CHD3,3,65.7,active
UCHL5,1,55.8,active
UCHL5,2,78.1,active
UCHL5,3,44.2,active
SP1,1,45.8,active
SP1,2,47,active
SP1,3,48.4,active
ESPL1,1,82.4,inactive
ESPL1,2,89.8,inactive
ESPL1,3,74.3,active
